## Library screen at single concentrations

Data taken from ChEMBL document CHEMBL3988442, “University of Dundee, Small-Polar-MMV Screening Library” (2021).

Values are the deposited “Percent Effect”, in %. The record does not define 0% and 100%; most values in the screen are far below 50% and negative numbers occur (in some assays of this library far below -100). This is an unselected part of the compounds tested.

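Whole-parasite assay of Trypanosoma brucei over 72 hours; the read-out is not stated. Tested at 30 µM. Higher reads as stronger inhibition (inferred: compounds with an IC50 in retests scored well above the rest). Values scatter widely below zero; nearly all retest evidence comes from the higher of the two concentrations used. Of about 64,000 compounds tested this way, about 940 (1.5%) reached 50% or more in at least one test.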

compound: O=C(O)C(F)(F)F.O=C(O)C(F)(F)F.O=C(O)C(F)(F)F.c1ccc(CN2CC[C@]3(C[C@@H](Oc4ccccn4)CO3)C2)nc1
effect: -8.558%

compound: Cc1cnn(CCCNC(=O)C2CCCCN2Cc2cccnc2)c1 (stereo unspecified)
effect: -29.75%

compound: Cc1ccc2nc(C)cc(NCCNS(=O)(=O)c3cccnc3)c2c1
effect: -10.45%

compound: c1cnnc(N2CCCC(NCc3ccncc3)C2)c1 (stereo unspecified)
effect: -9.81%

compound: Cc1nc(C)n(CC2CCCN(Cc3cccc4c3OCCO4)C2)n1 (stereo unspecified)
effect: -12.31%

compound: Cc1cc(F)ccc1N1CCCC(NC2CCSCC2)C1=O (stereo unspecified)
effect: -4.381%

compound: COCC(=O)NC1CCCN(c2ccc(C)cc2)C1=O (stereo unspecified)
effect: -2.856%

compound: Cc1cc(C)n(C2CN(CCC(=O)NCCc3ccccc3)C2)n1
effect: 10.53%

compound: Nc1c(N2CCCCC2)ncnc1N1CCOCC1
effect: -29.72%

compound: Cc1cc(CC(=O)NCC(O)COc2ccc(F)c(F)c2)n[nH]1 (stereo unspecified)
effect: -77.09%

compound: CCOCCCNC(=O)c1nnn(Cc2ccccc2)c1OC
effect: -10.56%

compound: O=C(CCCn1cnc2ccccc2c1=O)Nc1nc[nH]n1
effect: -8.537%

compound: CCn1nccc1CNC(=O)NC1CCCCC1
effect: -40.74%

compound: CCc1cc(C(F)(F)F)n2nc(C3CCCN3C3CCSCC3)cc2n1.O=C(O)CC(O)(CC(=O)O)C(=O)O (stereo unspecified)
effect: -10.53%

compound: Cc1nnc(NC(=O)NCCN(C(=O)OC(C)(C)C)C2CC2)s1
effect: 10.03%

compound: COC(=O)C(NC(=O)c1ccco1)c1cc(F)ccc1F (stereo unspecified)
effect: -7.542%

compound: CCOC1COC2(CCN(C(=O)c3cccc(C)n3)CC2)C1.O=C(O)C(F)(F)F (stereo unspecified)
effect: -42.09%

compound: c1ccc(-n2ccnc2)c(CNCC2CNc3ccnn3C2)c1 (stereo unspecified)
effect: 24.22%

compound: Cc1ccc(NC2CCN(C(=O)COc3ccccc3)CC2)nn1
effect: 11.59%

compound: CNC(=O)COC1COC2(CCN(c3ccc(C#N)cc3)CC2)C1.O=C(O)C(F)(F)F (stereo unspecified)
effect: -14.7%

compound: COc1cc(C(=O)N(Cc2ccco2)C2CC2)cc2c1OCCO2
effect: 51.93%

compound: Cc1ccccc1C(C)(C)CNC(=O)CN(C)c1cnccn1
effect: -16.82%

compound: [H][C@@]12CCN(S(C)(=O)=O)C[C@]1([H])[C@@H](CNC(=O)c1nccn1C)OC2
effect: -32.66%

compound: CCOCc1nc2c(c(NCc3cc(C)on3)n1)CCN(C(C)=O)CC2
effect: 20.88%

compound: COc1cccc(N2CCN(C(=O)C(OC)c3ccccc3)CC2=O)c1 (stereo unspecified)
effect: 15.71%

compound: O=C(O)C(F)(F)F.[H][C@@]12CCN(Cc3ccco3)[C@]1([H])CC[C@H](COCC1CC1)O2
effect: -38.88%

compound: CCCc1nnc(NCCc2noc(C3CCCC3)n2)o1
effect: -39.45%

compound: Cn1c(Cn2ccnc2)nnc1C1CCN(C(=O)c2cccnc2)CC1
effect: -24.21%

compound: Cc1oc(C(=O)O)cc1S(=O)(=O)Nc1c(F)cccc1-n1cccn1
effect: 35.46%

compound: CCC(NC(=O)c1cc(NC(C)=O)ccc1Cl)c1cc(C)ccn1 (stereo unspecified)
effect: 8.046%

compound: CCc1nc(C2CCCN2C(=O)c2cc(C3CC3)[nH]n2)no1 (stereo unspecified)
effect: 44.29%

compound: Cc1noc(C)c1-c1cnc(CC2CCN(C(=O)c3cc[nH]n3)C2)cn1 (stereo unspecified)
effect: 13.24%

compound: CCCOC(=O)NCCC1CN(c2cnn(C)c(=O)c2)CCO1 (stereo unspecified)
effect: -13.53%

compound: CNC(=O)c1ccc(C(=O)N2CCCC(n3cc(C)cn3)C2)cn1 (stereo unspecified)
effect: 2.105%

compound: CCN(CC)c1ccc(CNC(=O)c2cccc(C)n2)cn1
effect: -19.37%

compound: CCC(CN1CCCC1)NC(=O)C1(c2ccc(F)cc2)CC1 (stereo unspecified)
effect: 10.31%

compound: O=C(c1cc(C2CCCC2)no1)N1CC(O)C1
effect: -1.568%

compound: CCc1nc(CNc2nc3c(s2)c(C)nn3C)cs1
effect: -300.9%

compound: Cc1ncc(C(=O)N2CCCC2(C)C(=O)N2CCOCC2)c(C)n1 (stereo unspecified)
effect: -11.41%

compound: CCc1noc(C(C)N2CCN(CCc3ccncc3)CC2)n1 (stereo unspecified)
effect: -36.06%

compound: Cc1nc(CC2CCN(C(=O)C(c3ccccc3C)N(C)C)CC2)no1 (stereo unspecified)
effect: -48.02%

compound: O=C(O)C(F)(F)F.O=C(O)C(F)(F)F.O=C(O)C(F)(F)F.[H][C@@]12CCN(Cc3ccccn3)[C@@]1([H])CC(=O)N2Cc1cccnc1
effect: 9.479%

compound: O=C(O)C(F)(F)F.[H][C@@]12COC[C@@H](CC(=O)N3CCCC3)[C@]1([H])CN(C(=O)c1cccnc1)C2
effect: -25.13%

compound: Cc1ccc(-c2nc(CCNC(=O)NC3CCN(C)CC3)co2)cc1
effect: 6.387%

compound: Cc1ccc2oc(C(=O)N3CCC(C(=O)N4CCCC4)CC3)cc2n1
effect: -20.25%

For reference, 4 entries once more:

* COc1cc(C(=O)N(Cc2ccco2)C2CC2)cc2c1OCCO2 : 51.93%
* CCc1nc(CNc2nc3c(s2)c(C)nn3C)cs1 : -300.9%
* CCOCCCNC(=O)c1nnn(Cc2ccccc2)c1OC : -10.56%
* CCN(CC)c1ccc(CNC(=O)c2cccc(C)n2)cn1 : -19.37%